Laboratory results reported in article PMC10030765.
These are yes or no findings as the source states them, for the method shown. In cells and extracts the contact can be indirect. Some binding calls cover weakened binding; strength is not graded here. For some assays here: Tags and fused reporters may be left off the sequences shown. One block for each binder: values may come before it.

By UniProt entry, the sequences of proteins in these tests, tags left out. Residues count along the entry.
UniProt Q9R1E9, residues 25-347: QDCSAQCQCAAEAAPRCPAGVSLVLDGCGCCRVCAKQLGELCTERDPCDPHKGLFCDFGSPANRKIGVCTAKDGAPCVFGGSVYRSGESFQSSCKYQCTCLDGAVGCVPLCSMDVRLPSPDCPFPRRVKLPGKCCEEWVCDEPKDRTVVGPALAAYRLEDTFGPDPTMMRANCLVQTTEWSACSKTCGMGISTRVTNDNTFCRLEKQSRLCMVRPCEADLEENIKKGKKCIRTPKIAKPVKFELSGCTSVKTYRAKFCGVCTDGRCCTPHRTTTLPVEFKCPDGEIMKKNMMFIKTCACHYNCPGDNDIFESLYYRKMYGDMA

Assays:
[1] = target: 3xFLAG tagged Ccn2/Ctgf (rat) (UniProt Q9R1E9); experiment: co-IP; CHO cells co-transfected with SLIT2:MYC and 3xFLAG tagged Ccn2/Ctgf or mutants; conditioned media in 1x TBS, M2 antibody-conjugated agarose 16 h; immunoblot for SLIT2 (MYC Ab in the legend)
[2] = target: rat Ccn2/Ctgf with FLAG epitope at the C terminus, expressed from AAV8 in mouse liver (rat) (UniProt Q9R1E9); experiment: co-IP; total protein homogenates of AAV8-Ccn2/Ctgf:FLAG- or AAV8-GFP-infected mouse livers after 6-week CCl4, 1x TBS with 0.5% Triton-100; M2 antibody-conjugated agarose; immunoblot with rabbit Slit2 antibody

binding [1]: binds
B1: full-length human SLIT2 with MYC epitope (protein, UniProt O94813 31-1529)
chain: QCSCSGSTVDCHGLALRSVPRNIPRNTERLDLNGNNITRITKTDFAGLRHLRVLQLMENKISTIERGAFQDLKELERLRLNRNHLQLFPELLFLGTAKLYRLDLSENQIQAIPRKAFRGAVDIKNLQLDYNQISCIEDGAFRALRDLEVLTLNNNNITRLSVASFNHMPKLRTFRLHSNNLYCDCHLAWLSDWLRQRPRVGLYTQCMGPSHLRGHNVAEVQKREFVCSGHQSFMAPSCSVLHCPAACTCSNNIVDCRGKGLTEIPTNLPETITEIRLEQNTIKVIPPGAFSPYKKLRRIDLSNNQISELAPDAFQGLRSLNSLVLYGNKITELPKSLFEGLFSLQLLLLNANKINCLRVDAFQDLHNLNLLSLYDNKLQTIAKGTFSPLRAIQTMHLAQNPFICDCHLKWLADYLHTNPIETSGARCTSPRRLANKRIGQIKSKKFRCSAKEQYFIPGTEDYRSKLSGDCFADLACPEKCRCEGTTVDCSNQKLNKIPEHIPQYTAELRLNNNEFTVLEATGIFKKLPQLRKINFSNNKITDIEEGAFEGASGVNEILLTSNRLENVQHKMFKGLESLKTLMLRSNRITCVGNDSFIGLSSVRLLSLYDNQITTVAPGAFDTLHSLSTLNLLANPFNCNCYLAWLGEWLRKKRIVTGNPRCQKPYFLKEIPIQDVAIQDFTCDDGNDDNSCSPLSRCPTECTCLDTVVRCSNKGLKVLPKGIPRDVTELYLDGNQFTLVPKELSNYKHLTLIDLSNNRISTLSNQSFSNMTQLLTLILSYNRLRCIPPRTFDGLKSLRLLSLHGNDISVVPEGAFNDLSALSHLAIGANPLYCDCNMQWLSDWVKSEYKEPGIARCAGPGEMADKLLLTTPSKKFTCQGPVDVNILAKCNPCLSNPCKNDGTCNSDPVDFYRCTCPYGFKGQDCDVPIHACISNPCKHGGTCHLKEGEEDGFWCICADGFEGENCEVNVDDCEDNDCENNSTCVDGINNYTCLCPPEYTGELCEEKLDFCAQDLNPCQHDSKCILTPKGFKCDCTPGYVGEHCDIDFDDCQDNKCKNGAHCTDAVNGYTCICPEGYSGLFCEFSPPMVLPRTSPCDNFDCQNGAQCIVRINEPICQCLPGYQGEKCEKLVSVNFINKESYLQIPSAKVRPQTNITLQIATDEDSGILLYKGDKDHIAVELYRGRVRASYDTGSHPASAIYSVETINDGNFHIVELLALDQSLSLSVDGGNPKIITNLSKQSTLNFDSPLYVGGMPGKSNVASLRQAPGQNGTSFHGCIRNLYINSELQDFQKVPMQTGILPGCEPCHKKVCAHGTCQPSSQAGFTCECQEGWMGPLCDQRTNDPCLGNKCVHGTCLPINAFSYSCKCLEGHGGVLCDEEEDLFNPCQAIKCKHGKCRLSGLGQPYCECSSGYTGDSCDREISCRGERIRDYYQKQQGYAACQTTKKVSRLECRGGCAGGQCCGPLRSKRRKYSFECTDGSSFVDEVEKVVKCGCTRCVS

binding [2]: binds
B2: murine Slit2, endogenous in fibrotic mouse liver (protein, UniProt Q9R1B9 26-1521)
chain: QACPAQCSCSGSTVDCHGLALRSVPRNIPRNTERLDLNGNNITRITKIDFAGLRHLRVLQLMENRISTIERGAFQDLKELERLRLNRNNLQLFPELLFLGTAKLYRLDLSENQIQAIPRKAFRGAVDIKNLQLDYNQISCIEDGAFRALRDLEVLTLNNNNITRLSVASFNHMPKLRTFRLHSNNLYCDCHLAWLSDWLRQRPRVGLYTQCMGPSHLRGHNVAEVQKREFVCSGHQSFMAPSCSVLHCPAACTCSNNIVDCRGKGLTEIPTNLPETITEIRLEQNSIRVIPPGAFSPYKKLRRLDLSNNQISELAPDAFQGLRSLNSLVLYGNKITELPKSLFEGLFSLQLLLLNANKINCLRVDAFQDLHNLNLLSLYDNKLQTVAKGTFSALRAIQTMHLAQNPFICDCHLKWLADYLHTNPIETSGARCTSPRRLANKRIGQIKSKKFRCSGTEDYRSKLSGDCFADLACPEKCRCEGTTVDCSNQRLNKIPDHIPQYTAELRLNNNEFTVLEATGIFKKLPQLRKINFSNNKITDIEEGAFEGASGVNEILLTSNRLENVQHKMFKGLESLKTLMLRSNRISCVGNDSFIGLGSVRLLSLYDNQITTVAPGAFDSLHSLSTLNLLANPFNCNCHLAWLGEWLRRKRIVTGNPRCQKPYFLKEIPIQDVAIQDFTCDDGNDDNSCSPLSRCPSECTCLDTVVRCSNKGLKVLPKGIPKDVTELYLDGNQFTLVPKELSNYKHLTLIDLSNNRISTLSNQSFSNMTQLLTLILSYNRLRCIPPRTFDGLKSLRLLSLHGNDISVVPEGAFNDLSALSHLAIGANPLYCDCNMQWLSDWVKSEYKEPGIARCAGPGEMADKLLLTTPSKKFTCQGPVDITIQAKCNPCLSNPCKNDGTCNNDPVDFYRCTCPYGFKGQDCDVPIHACISNPCKHGGTCHLKEGENAGFWCTCADGFEGENCEVNIDDCEDNDCENNSTCVDGINNYTCLCPPEYTGELCEEKLDFCAQDLNPCQHDSKCILTPKGFKCDCTPGYIGEHCDIDFDDCQDNKCKNGAHCTDAVNGYTCVCPEGYSGLFCEFSPPMVLPRTSPCDNFDCQNGAQCIIRINEPICQCLPGYLGEKCEKLVSVNFVNKESYLQIPSAKVRPQTNITLQIATDEDSGILLYKGDKDHIAVELYRGRVRASYDTGSHPASAIYSVETINDGNFHIVELLTLDSSLSLSVDGGSPKVITNLSKQSTLNFDSPLYVGGMPGKNNVASLRQAPGQNGTSFHGCIRNLYINSELQDFRKMPMQTGILPGCEPCHKKVCAHGMCQPSSQSGFTCECEEGWMGPLCDQRTNDPCLGNKCVHGTCLPINAFSYSCKCLEGHGGVLCDEEEDLFNPCQMIKCKHGKCRLSGVGQPYCECNSGFTGDSCDREISCRGERIRDYYQKQQGYAACQTTKKVSRLECRGGCAGGQCCGPLRSKRRKYSFECTDGSSFVDEVEKVVKCGCARCAS
